# Assay results published in the supplement of paper PMC7666118.
# Protein sequences, listed by entry. Tags and fused reporters are not part of them. Lines headed by an entry give the natural chain unless they say otherwise; changes in a name come on top.
# UniProt Q9Y3B8: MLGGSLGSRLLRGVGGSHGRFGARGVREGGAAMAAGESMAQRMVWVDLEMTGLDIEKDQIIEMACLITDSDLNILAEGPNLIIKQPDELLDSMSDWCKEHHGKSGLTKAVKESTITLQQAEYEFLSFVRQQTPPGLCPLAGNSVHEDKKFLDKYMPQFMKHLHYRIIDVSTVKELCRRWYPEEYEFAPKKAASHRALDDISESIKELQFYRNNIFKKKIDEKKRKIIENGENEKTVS
# UniProt Q9H871: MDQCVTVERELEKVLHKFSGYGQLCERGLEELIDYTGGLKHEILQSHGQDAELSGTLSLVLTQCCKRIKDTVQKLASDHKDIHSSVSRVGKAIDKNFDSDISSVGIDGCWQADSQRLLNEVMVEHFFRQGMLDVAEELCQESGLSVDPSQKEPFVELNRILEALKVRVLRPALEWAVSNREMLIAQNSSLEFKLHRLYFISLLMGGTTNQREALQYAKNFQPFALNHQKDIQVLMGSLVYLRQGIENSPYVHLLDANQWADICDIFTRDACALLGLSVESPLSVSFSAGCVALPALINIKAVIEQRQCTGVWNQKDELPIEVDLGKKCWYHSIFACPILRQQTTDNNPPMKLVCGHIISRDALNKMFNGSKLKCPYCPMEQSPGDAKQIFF
# UniProt Q92834: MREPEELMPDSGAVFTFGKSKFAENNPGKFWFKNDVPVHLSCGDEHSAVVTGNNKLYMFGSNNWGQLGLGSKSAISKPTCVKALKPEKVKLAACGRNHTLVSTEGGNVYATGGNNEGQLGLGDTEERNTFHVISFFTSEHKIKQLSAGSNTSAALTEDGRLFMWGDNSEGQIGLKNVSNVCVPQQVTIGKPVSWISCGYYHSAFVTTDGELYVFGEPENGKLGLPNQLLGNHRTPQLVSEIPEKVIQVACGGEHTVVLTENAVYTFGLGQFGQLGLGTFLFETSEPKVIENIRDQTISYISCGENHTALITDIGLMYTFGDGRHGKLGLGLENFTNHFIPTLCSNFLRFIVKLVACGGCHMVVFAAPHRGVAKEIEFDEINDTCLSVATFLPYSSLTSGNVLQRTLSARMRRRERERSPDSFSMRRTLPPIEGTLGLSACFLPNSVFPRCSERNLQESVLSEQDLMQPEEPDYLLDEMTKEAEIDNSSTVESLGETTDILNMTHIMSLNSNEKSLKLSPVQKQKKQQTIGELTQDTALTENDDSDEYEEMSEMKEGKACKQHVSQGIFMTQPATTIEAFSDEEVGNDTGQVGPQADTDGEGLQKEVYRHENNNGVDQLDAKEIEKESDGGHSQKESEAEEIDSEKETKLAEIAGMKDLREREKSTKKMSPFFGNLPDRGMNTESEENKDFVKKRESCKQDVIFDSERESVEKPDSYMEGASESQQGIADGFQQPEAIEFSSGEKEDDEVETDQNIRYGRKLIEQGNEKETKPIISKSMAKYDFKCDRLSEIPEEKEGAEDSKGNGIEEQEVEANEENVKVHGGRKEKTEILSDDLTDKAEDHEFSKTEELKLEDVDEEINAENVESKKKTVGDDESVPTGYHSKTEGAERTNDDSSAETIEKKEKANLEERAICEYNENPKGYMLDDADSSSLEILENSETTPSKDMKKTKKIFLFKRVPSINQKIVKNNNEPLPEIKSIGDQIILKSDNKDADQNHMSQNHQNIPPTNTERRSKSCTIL
# UniProt Q8NCN4: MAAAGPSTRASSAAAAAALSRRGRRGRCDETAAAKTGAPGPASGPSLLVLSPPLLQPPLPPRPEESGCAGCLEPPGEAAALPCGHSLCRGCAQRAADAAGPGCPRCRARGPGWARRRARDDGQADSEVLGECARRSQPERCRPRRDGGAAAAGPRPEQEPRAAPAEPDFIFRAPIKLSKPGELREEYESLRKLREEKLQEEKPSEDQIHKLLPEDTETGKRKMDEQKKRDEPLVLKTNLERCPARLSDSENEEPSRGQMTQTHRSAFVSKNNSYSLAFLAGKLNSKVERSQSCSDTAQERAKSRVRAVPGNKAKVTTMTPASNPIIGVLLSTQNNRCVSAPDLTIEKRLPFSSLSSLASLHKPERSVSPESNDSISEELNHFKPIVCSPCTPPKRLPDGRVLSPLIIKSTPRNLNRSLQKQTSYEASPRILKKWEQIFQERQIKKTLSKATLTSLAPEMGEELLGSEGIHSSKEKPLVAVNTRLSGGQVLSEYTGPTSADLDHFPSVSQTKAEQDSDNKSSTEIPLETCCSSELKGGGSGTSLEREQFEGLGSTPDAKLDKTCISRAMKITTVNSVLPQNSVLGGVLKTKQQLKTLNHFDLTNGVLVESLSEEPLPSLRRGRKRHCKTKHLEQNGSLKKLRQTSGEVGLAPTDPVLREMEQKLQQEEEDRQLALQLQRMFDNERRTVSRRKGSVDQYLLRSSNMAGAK
# UniProt Q5VT52: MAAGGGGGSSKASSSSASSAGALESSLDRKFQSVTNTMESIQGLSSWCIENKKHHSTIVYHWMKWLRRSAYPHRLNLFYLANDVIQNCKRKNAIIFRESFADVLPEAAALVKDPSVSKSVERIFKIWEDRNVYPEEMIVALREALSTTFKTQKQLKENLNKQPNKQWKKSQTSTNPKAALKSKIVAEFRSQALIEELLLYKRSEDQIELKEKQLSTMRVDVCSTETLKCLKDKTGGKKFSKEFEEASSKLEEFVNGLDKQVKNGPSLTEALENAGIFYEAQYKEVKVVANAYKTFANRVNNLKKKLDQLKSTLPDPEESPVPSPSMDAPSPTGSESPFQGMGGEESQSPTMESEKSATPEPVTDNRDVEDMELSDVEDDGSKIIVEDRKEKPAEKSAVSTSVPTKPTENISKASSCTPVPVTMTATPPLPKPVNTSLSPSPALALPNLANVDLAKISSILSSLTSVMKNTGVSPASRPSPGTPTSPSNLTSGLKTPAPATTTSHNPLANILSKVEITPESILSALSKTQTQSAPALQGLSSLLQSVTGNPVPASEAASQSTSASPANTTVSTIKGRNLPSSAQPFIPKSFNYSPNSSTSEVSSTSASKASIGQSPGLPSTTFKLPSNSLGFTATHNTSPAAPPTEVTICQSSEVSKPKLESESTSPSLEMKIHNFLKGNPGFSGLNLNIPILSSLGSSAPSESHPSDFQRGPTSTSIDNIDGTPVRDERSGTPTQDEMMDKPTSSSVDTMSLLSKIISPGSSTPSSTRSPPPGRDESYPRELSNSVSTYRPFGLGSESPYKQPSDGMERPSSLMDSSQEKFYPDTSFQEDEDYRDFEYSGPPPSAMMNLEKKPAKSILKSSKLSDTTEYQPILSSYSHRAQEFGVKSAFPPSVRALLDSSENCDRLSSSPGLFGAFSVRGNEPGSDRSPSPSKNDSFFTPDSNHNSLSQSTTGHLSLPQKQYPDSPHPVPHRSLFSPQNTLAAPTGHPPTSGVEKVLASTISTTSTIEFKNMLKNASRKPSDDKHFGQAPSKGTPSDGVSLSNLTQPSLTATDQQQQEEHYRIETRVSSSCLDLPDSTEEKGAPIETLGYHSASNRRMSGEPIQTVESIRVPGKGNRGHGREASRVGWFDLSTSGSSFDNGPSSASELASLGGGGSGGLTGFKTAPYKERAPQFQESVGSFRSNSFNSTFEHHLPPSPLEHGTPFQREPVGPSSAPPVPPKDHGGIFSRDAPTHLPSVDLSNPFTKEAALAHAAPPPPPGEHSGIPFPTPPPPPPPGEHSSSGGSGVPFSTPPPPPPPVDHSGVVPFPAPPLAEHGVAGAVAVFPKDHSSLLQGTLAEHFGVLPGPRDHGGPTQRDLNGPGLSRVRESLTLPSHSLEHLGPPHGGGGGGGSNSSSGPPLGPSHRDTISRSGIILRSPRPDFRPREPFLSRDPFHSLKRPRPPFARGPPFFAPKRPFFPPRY
# UniProt P04843: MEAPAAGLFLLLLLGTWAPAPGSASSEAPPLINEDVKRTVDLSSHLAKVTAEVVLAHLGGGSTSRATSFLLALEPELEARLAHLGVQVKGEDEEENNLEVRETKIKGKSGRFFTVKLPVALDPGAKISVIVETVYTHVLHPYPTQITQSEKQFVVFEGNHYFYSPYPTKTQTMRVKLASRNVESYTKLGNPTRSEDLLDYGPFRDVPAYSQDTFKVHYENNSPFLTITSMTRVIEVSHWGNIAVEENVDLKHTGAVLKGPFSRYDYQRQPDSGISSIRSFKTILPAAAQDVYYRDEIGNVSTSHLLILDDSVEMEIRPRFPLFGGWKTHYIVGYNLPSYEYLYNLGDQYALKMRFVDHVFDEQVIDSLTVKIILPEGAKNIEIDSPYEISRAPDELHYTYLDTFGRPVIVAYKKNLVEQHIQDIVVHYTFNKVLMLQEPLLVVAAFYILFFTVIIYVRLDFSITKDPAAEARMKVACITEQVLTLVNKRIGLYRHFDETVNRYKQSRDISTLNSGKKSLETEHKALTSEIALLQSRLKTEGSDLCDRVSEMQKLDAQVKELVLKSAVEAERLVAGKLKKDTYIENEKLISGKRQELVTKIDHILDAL
# UniProt Q8WWV3: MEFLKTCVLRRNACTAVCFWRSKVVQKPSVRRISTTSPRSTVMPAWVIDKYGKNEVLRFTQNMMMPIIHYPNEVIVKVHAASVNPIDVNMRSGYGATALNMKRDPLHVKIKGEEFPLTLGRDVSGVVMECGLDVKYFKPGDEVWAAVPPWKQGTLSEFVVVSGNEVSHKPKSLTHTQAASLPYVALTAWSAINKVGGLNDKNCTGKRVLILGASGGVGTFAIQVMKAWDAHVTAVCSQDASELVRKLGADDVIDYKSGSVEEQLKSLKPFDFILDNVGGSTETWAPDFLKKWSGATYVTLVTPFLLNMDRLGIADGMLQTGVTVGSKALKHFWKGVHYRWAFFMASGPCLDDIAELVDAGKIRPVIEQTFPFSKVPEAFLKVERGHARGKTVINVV
# Some of the results follow.
# Compound: COc1ccc(Cn2ccc3ccc(C(=O)NO)cc32)cc1
# Assay: dose-dependent thermal stabilisation call (2D-TPP, DLPTP, 10% FDR) (binary (1 = stabilised)); higher = stabilised by the compound
# Conditions: system: HL-60 intact cells; concentration range 0.04-10 µM
row,Target,dose-dependent thermal stabilisation call
1,REXO2 (UniProt Q9Y3B8),inactive: 0
2,RMND5A (UniProt Q9H871),inactive: 0
3,RPGR (UniProt Q92834),inactive: 0
4,RPS15 (UniProt P62841),inactive: 0
5,RNF169 (UniProt Q8NCN4),inactive: 0
6,RPRD2 (UniProt Q5VT52),inactive: 0
7,RPL11 (UniProt P62913),inactive: 0
8,RPN1 (UniProt P04843),inactive: 0
9,RTN4IP1 (UniProt Q8WWV3),inactive: 0
10,RPS15A (UniProt P62244),inactive: 0
